Results are given in words; binding and its absence hold for the method and conditions named. Some entries that bind do so weakly or less than the wild type.
T1: human dihydrolipoamide dehydrogenase, wild type (human), P09622
T1 chain: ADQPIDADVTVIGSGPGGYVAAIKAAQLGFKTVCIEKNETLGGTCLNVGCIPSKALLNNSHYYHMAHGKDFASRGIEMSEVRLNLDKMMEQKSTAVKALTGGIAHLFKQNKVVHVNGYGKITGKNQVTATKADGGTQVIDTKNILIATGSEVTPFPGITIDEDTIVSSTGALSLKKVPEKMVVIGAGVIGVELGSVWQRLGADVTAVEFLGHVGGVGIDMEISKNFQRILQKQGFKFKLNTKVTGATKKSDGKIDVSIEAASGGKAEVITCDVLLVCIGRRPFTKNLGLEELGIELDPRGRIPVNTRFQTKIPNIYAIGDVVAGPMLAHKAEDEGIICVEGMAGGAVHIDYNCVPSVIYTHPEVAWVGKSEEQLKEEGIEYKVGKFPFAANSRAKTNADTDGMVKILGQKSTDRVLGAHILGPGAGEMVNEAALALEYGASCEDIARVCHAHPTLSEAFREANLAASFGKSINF


Tests used:
[1] = biological target: T1, human dihydrolipoamide dehydrogenase, …; experiment: SEC; calibrated size-exclusion chromatography (cSEC); HiPrep 16/60 Sephacryl S-200 HR, 4 °C, 150 mM ammonium acetate, pH 6.80, 0.5 mL/min; 40–780 μg protein loaded; dimer to monomers; both purified; settings: remark: other sources report otherwise
[2] = biological target: G101del-hLADH (human) (UniProt P09622); experiment: as above

Binder	binding [1]	binding [2]
human dihydrolipoamide dehydrogenase, wild type, P09622 36-509 (enzyme) ADQPIDADVTVIGSGPGGYVAAIKAAQLGFKTVCIEKNETLGGTCLNVGCIPSKALLNNSHYYHMAHGKDFASRGIEMSEVRLNLDKMMEQKSTAVKALTGGIAHLFKQNKVVHVNGYGKITGKNQVTATKADGGTQVIDTKNILIATGSEVTPFPGITIDEDTIVSSTGALSLKKVPEKMVVIGAGVIGVELGSVWQRLGADVTAVEFLGHVGGVGIDMEISKNFQRILQKQGFKFKLNTKVTGATKKSDGKIDVSIEAASGGKAEVITCDVLLVCIGRRPFTKNLGLEELGIELDPRGRIPVNTRFQTKIPNIYAIGDVVAGPMLAHKAEDEGIICVEGMAGGAVHIDYNCVPSVIYTHPEVAWVGKSEEQLKEEGIEYKVGKFPFAANSRAKTNADTDGMVKILGQKSTDRVLGAHILGPGAGEMVNEAALALEYGASCEDIARVCHAHPTLSEAFREANLAASFGKSINF	binds	
G101del-hLADH (enzyme, UniProt P09622 36-509) ADQPIDADVTVIGSGPGGYVAAIKAAQLGFKTVCIEKNETLGGTCLNVGCIPSKALLNNSHYYHMAHGKDFASRGIEMSEVRLNLDKMMEQKSTAVKALTGIAHLFKQNKVVHVNGYGKITGKNQVTATKADGGTQVIDTKNILIATGSEVTPFPGITIDEDTIVSSTGALSLKKVPEKMVVIGAGVIGVELGSVWQRLGADVTAVEFLGHVGGVGIDMEISKNFQRILQKQGFKFKLNTKVTGATKKSDGKIDVSIEAASGGKAEVITCDVLLVCIGRRPFTKNLGLEELGIELDPRGRIPVNTRFQTKIPNIYAIGDVVAGPMLAHKAEDEGIICVEGMAGGAVHIDYNCVPSVIYTHPEVAWVGKSEEQLKEEGIEYKVGKFPFAANSRAKTNADTDGMVKILGQKSTDRVLGAHILGPGAGEMVNEAALALEYGASCEDIARVCHAHPTLSEAFREANLAASFGKSINF		no binding
